Values quoted from earlier work in patent US20020102280A1, “Solvent systems for pharmaceutical agents” (priority 2000, published 2002).

Conditions: cited from earlier work

## CC(=O)O[C@H]1C(=O)[C@@]2(C)[C@H]([C@H](OC(=O)c3ccccc3)[C@]3(O)C[C@H](OC(=O)[C@H](O)[C@@H](NC(=O)c4ccccc4)c4ccccc4)C(C)=C1C3(C)C)[C@]1(OC(C)=O)CO[C@@H]1C[C@@H]2O [Paclitaxel, paclitaxel]
  solubility in water (in words): exceedingly low solubility in water
